Results from EP1462117A1, “Method for in vivo detection of antipsychotic properties of dopamine D3 receptor ligands” (priority 2003, dated 2004).
At least one structure is not confirmed: it was looked up by name or label, or the drawing left a doubt.

What was measured:
Format in all cases: in vivo
Swiss mice [1] = assay: Locomotor hyperactivity induced by continuous infusion of MK-801 (osmotic minipumps); conditions: acute administration on the 10th day after minipump implantation; clozapine 1 mg/kg, haloperidol 0.3 mg/kg, BP 897 1 mg/kg
Description: Male Swiss mice (IFFA CREDO, France), weighing 26-28 g, were housed six per cage (25 × 15 ×13 cm), on a 12 h/12 h light/dark cycle (lights on at 07:00 a.m.), with food and water freely available. Room temperature ranged from 20° to 22°C and humidity varied between 55% and 65%.
Dizocilpine, as (+)-MK-801 maleate (Sigma), dissolved in 0.9% NaCl (saline), and its respective vehicle solution, was continuously infused via osmotic minipumps (Model 1007D, Alzet Corp.). Minipumps were filled 6 h prior to implantation and placed in a sterile saline water bath at 37°C. […]
Once the minipumps implanted (Day 0), the locomotor activity was measured for 1h, at days 2, 4 and 7 in an actimeter (Imetronic, Pessac, France).
(§1) Between-group differences were analyzed with the Statistica™ software using two-way analysis of variance (ANOVA) and Least Significance Difference (LSD) post-hoc test. The analysis of data obtained with the same animals evaluated on several occasions (time-course experiments), between-within univariate or multivariate ANOVA for repeated measures were used (time being the repeated measure). Data from the resident-intruder assay were analyzed by analysis of variance (ANOVA), followed by a Tukey-Kramer Multiple Comparison post-hoc test.

wild-type (D3R^+/+) mice = assay: MK-801-induced locomotor activity in wild-type mice; conditions: compound 1 mg/kg
Description: Male Swiss mice (Iffa Credo, France), weighing 25-30 g, were housed four per cage (25 × 15 × 13 cm), on a 12 hr/12 hr light/dark cycle (lights on at 07:00 a.m.), with food and water ad libitum. […] Experiments with D3R-deficient mice were performed on male homozygous mutant mice and their wild-type littermates. […] Subsequently, these mice were backcrossed up to 8 times with C57BL6 mice. The mice used in the present study were backcrossed 7 to 8 times.
All experiments were conducted between 2.00 p.m. and 6.00 p.m., and the animals were kept in the test room at least 1 h before recording their activity. […] Counts for forward horizontal activity were incremented each time the animal moved from one-half part of the cage to the other, corresponding to disruption of two crossed parallel beams distant of 14 cm. In time-course studies, counts were summed every 5 min. […]
as §1, with “measure).” for “measure). Data from the resident-intruder assay were analyzed by analysis of variance (ANOVA), followed by a Tukey-Kramer Multiple Comparison post-hoc test.”

[2] = system: D3 receptor-deficient mice (D3R^-/-); assay: MK-801-induced locomotor activity in D3 receptor-deficient mice; conditions: compound 1 mg/kg
Description: (§2) Male Swiss mice (Iffa Credo, France), weighing 25-30 g, were housed four per cage (25 × 15 × 13 cm), on a 12 hr/12 hr light/dark cycle (lights on at 07:00 a.m.), with food and water ad libitum. […] Experiments with D3R-deficient mice were performed on male homozygous mutant mice and their wild-type littermates. […] The mice used in the present study were backcrossed 7 to 8 times.
All experiments were conducted between 2.00 p.m. and 6.00 p.m., and the animals were kept in the test room at least 1 h before recording their activity. […] Counts for forward horizontal activity were incremented each time the animal moved from one-half part of the cage to the other, corresponding to disruption of two crossed parallel beams distant of 14 cm. In time-course studies, counts were summed every 5 min.
In addition, another experiment was performed with two groups of 8 mice of each genotype, injected with either saline or haloperidol (0.05 mg/kg).
as §1, with “measure).” for “measure). Data from the resident-intruder assay were analyzed by analysis of variance (ANOVA), followed by a Tukey-Kramer Multiple Comparison post-hoc test.”

MK-801-treated mice = assay: Resident-intruder assay in MK-801-treated mice; conditions: MK-801 0.02 mg/kg/h for 7 days; compound 1 mg/kg i.p. 30 min prior testing; 5 min
Description: Male mice were housed individually or in groups of five for at least 1 week prior to minipump implantation (Day 0), delivering MK-801 (0.02 mg/kg/h) or saline (Sham), and were tested at day 7. As described in Dixon et al. (1994), a group-housed male (intruder) was placed in the home cage of the individually housed male (resident), and their behaviors were video recorded for 5 min. […] The videotaped behaviors of the resident or intruder male were individually scored, by an experimenter unaware of the treatment group, for time spent in social investigation (approaching, sniffing, grooming other mouse, and sexual behavior), and in escape behavior (actively avoiding the unfamiliar congener). The scores for each behavior were subsequently averaged for each group.
as §1

Swiss mice [3] = assay: MK-801 (dizocilpine)-induced and spontaneous locomotor activity, acute treatment, actimeter; conditions: post-hoc vs saline
Description: as §2
Haloperidol (Janssen Pharmaceuticals, Beerse, Belgium) and clozapine (Novartis, Basel, Switzerland) were dissolved in a few drops of hydrochloric acid and distilled water, and the pH of the solution was adjusted to pH 5 to 6 using NaOH. […] The compounds were injected i.p. in a volume of 5 ml/kg. […]
as §1, with “measure).” for “measure). Data from the resident-intruder assay were analyzed by analysis of variance (ANOVA), followed by a Tukey-Kramer Multiple Comparison post-hoc test.”
To assess simply the in vivo biological activity of the novel compound at the D3 receptor, the above described test, in which hyperlocomotion induced by low doses of dizocilpine is measured, was used.

In the case of CN1CCN(C2=Nc3cc(Cl)ccc3Nc3ccccc32)CC1 [clozapine], the MK-801-induced hyperactivity (Swiss mice [1]) is reported as “inhibited”, the MK-801-induced activity (wild-type (D3R^+/+) mice; MK-801 […], D3R^+/+ mice) is reported as “inhibited” and the “spontaneous activity during the habituation phase” value (wild-type (D3R^+/+) mice; experiment with D3R^+/+ and D3R^-/- mice) is reported as “Neither of the drugs affected”. The “locomotor response to MK-801” value [2] was “kept an inhibitory effect”, the Social investigations (MK-801-treated mice) was “restored” and the escape behavior (MK-801-treated mice) was “completely normalized”. For the same molecule, the MK-801-induced hyperactivity (Swiss mice [3]; compound 0.3 mg/kg i.p.) was “significantly attenuated” and the MK-801-induced hyperactivity (Swiss mice [3]; compound 1 mg/kg i.p.) was “significantly attenuated”.
